In paper PMC3672211:
No constants are given. Whether binding was seen depends on the method and setting. Binding seen in cells or lysates may run through a third protein. For some assays here: Sequences can lack the tags named with a protein.

Protein sequences, listed by entry. Tags and fused reporters are not part of them. Residues count along the entry.
UniProt Q0GXS4, residues 28-595: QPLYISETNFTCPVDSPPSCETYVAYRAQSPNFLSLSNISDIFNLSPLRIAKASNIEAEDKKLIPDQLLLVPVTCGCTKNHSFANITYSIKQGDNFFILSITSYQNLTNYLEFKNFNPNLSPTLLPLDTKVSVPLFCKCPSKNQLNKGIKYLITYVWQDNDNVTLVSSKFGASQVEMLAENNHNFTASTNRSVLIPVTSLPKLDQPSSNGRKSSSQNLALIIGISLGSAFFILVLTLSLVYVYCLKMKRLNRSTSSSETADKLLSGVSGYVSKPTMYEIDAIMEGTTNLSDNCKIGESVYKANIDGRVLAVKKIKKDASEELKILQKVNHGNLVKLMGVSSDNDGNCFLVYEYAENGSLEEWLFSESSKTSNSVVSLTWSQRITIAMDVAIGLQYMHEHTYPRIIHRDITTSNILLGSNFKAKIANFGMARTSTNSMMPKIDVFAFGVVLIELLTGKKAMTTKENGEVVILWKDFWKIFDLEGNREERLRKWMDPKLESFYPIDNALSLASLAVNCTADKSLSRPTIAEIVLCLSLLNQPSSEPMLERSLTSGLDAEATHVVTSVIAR
UniProt O22476, residues 24-1196: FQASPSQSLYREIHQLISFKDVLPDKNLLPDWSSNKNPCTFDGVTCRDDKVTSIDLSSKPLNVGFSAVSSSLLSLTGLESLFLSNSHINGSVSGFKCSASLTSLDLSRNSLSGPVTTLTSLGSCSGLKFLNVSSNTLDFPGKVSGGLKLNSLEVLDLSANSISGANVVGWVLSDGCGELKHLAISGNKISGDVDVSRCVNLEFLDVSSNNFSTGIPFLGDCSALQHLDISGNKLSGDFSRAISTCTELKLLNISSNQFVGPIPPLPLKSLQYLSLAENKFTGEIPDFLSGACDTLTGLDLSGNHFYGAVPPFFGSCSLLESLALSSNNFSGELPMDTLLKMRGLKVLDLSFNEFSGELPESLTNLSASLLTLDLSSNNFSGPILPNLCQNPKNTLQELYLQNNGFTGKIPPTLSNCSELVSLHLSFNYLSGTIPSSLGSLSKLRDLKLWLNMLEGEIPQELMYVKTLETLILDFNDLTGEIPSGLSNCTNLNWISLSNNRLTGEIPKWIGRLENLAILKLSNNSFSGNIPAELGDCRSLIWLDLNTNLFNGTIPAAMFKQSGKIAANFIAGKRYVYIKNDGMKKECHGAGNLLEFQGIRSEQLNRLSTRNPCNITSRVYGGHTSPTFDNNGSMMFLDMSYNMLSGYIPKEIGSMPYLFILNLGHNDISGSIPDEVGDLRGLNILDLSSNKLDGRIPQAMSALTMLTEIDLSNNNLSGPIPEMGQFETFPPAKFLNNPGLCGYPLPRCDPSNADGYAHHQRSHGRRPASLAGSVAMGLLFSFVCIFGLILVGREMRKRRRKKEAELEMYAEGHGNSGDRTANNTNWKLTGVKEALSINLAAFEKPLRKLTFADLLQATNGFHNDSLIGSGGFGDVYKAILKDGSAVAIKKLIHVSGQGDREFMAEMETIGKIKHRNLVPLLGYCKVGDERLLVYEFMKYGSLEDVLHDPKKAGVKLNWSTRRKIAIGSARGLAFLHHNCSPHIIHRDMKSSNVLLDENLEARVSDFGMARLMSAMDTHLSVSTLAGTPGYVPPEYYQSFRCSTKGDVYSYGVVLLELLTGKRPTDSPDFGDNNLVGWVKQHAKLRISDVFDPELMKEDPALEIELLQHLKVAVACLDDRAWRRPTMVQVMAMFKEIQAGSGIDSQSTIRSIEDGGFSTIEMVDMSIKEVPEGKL

What was measured:
[1] = biological target: T1, MtLYK3-YFP N (Medicago truncatula LysM domain-containing Receptor-Like Kinase 3 fused to the N-terminal part of split YFP) (Medicago truncatula) (UniProt Q6UD73); assay: split reporter; BiFluorescence Complementation in Nicotiana benthamiana leaves; Agrobacterium transformants with YFP C and YFP N constructs co-infiltrated at high optical densities (final OD600 = 0.5 each); YFP fluorescence by microscopy
T1 sequence: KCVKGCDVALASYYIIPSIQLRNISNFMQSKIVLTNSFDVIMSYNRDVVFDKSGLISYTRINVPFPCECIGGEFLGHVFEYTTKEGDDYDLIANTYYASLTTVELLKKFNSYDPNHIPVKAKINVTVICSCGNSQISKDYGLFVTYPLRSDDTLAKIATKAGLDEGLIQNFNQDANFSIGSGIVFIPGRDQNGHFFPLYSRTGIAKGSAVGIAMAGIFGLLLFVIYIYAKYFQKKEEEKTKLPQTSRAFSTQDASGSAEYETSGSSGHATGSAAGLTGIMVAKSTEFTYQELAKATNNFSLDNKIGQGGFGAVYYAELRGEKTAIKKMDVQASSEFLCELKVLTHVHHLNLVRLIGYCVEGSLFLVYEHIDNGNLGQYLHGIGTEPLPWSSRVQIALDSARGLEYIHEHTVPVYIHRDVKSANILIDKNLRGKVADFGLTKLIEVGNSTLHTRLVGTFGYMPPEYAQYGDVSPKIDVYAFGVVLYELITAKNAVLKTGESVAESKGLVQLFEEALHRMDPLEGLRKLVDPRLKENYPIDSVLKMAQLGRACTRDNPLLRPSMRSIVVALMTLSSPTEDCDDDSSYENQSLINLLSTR

[2] = biological target: MtNFP-YFP N (Medicago truncatula Nod Factor Perception fused to the N-terminal part of split YFP) (Medicago truncatula) (UniProt Q0GXS4); assay: as above

## AtBRI1-YFP C (Arabidopsis Brassinosteroid Insensitive 1 fused to the C-terminal part of split YFP) (from UniProt O22476 24-1196) (receptor)
[1]
  binding: no binding
[2]
  binding: no binding
